PubChem BioAssay AID652272, Drosophila RNAi Screening Center, 2013
The screen tested about 21,000 reagents; this is an unselected part of those with a known target gene and a result. Of all reagents, 503 (2.4%) got an active call. 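Raw plate light values, not normalised; calls rest on replicate z-scores that were not deposited; hits include reporter decreases as well as increases.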 A plus sign joins genes that one reagent is predicted to hit. No sequences are given here. Not given: the amount of reagent, the time to read-out.

Aim: 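Genome-wide knock-down search for components of Hedgehog signalling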 (primary screen)
System: Drosophila clone 8 (Cl8) cells
Reagent: long dsRNA against Drosophila genes
Detection: 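Firefly light from a Hedgehog-responsive ptc promoter reporter and Renilla reference light, both read on a plate reader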
Direction: firefly Hh reporter signal: higher = more ptc reporter light; Renilla reference signal: higher = more Renilla control light
Hit rule: 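Called a hit if the two-replicate mean z-score lies below -2 or above +3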
Meaning of the calls: active = hit: reporter lowered or raised; inactive = not a hit

| target gene | DRSC id | firefly Hh reporter signal, replicate 1 | firefly Hh reporter signal, replicate 2 | firefly Hh reporter signal, replicate 3 | Renilla reference signal, replicate 1 | Renilla reference signal, replicate 2 | Call |
| --- | --- | --- | --- | --- | --- | --- | --- |
| NK7.1 | DRSC16755 | 68720 | 64378 | – | 3719 | 2848 | inactive |
| ball | DRSC14145 | 56300 | 78021 | – | 2195 | 2266 | inactive |
| Fmr1 | DRSC16674 | 86624 | 81513 | – | 2445 | 2248 | inactive |
| Scsalpha1 | DRSC08698 | 1.16e5 | 1.04e5 | – | 4811 | 3979 | inactive |
| Dhc62B | DRSC08655 | 61763 | 27355 | – | 2235 | 2331 | inactive |
| Ugt36E1 | DRSC02599 | 32155 | 52101 | – | 1353 | 2244 | inactive |
| whd | DRSC07351 | 68636 | 49620 | – | 2835 | 2080 | inactive |
| Rtel1 | DRSC18343 | 94656 | 2.68e5 | – | 3414 | 9028 | inactive |
| hpRNA:CR18854 + IP3K1 | DRSC02218 | 1.14e5 | 53248 | – | 4466 | 2461 | inactive |
| CG10898 | DRSC14279 | 1.33e5 | 1.04e5 | – | 4880 | 3773 | inactive |
| ash2 | DRSC16902 | 1.10e5 | 1.21e5 | – | 4817 | 4528 | inactive |
| slam | DRSC03240 | 1.10e5 | 47373 | – | 3069 | 3722 | inactive |
| CG5068 | DRSC10476 | 74089 | 66875 | – | 3082 | 3010 | inactive |
| CG43795 | DRSC04192 | 1.01e5 | 45712 | – | 2823 | 4521 | inactive |
| CG43795 | DRSC04193 | 1.14e5 | 67996 | – | 3117 | 5792 | inactive |
| CG43795 | DRSC04194 | 1.41e5 | 1.07e5 | – | 4139 | 8097 | inactive |
| CG43795 | DRSC04309 | 1.00e5 | 74601 | – | 2778 | 6464 | inactive |
| CG43795 | DRSC04310 | 77593 | 56508 | – | 2036 | 4428 | inactive |
| CG43795 | DRSC04497 | 64172 | 33088 | – | 1863 | 3922 | inactive |
| CG9581 | DRSC20695 | 1.94e5 | 5.86e5 | 1.30e5 | 4371 | 35033 | inactive |
| CG5815 | DRSC14135 | 1.51e5 | 1.57e5 | – | 5642 | 4233 | inactive |
| CG8773 | DRSC16444 | 1.43e5 | 1.22e5 | – | 6643 | 4645 | inactive |
| Eaf6 | DRSC09901 | 66775 | 52746 | – | 6869 | 3753 | inactive |
| CG1737 | DRSC19771 | 5.84e5 | 1.10e5 | – | 2981 | 2981 | inactive |
| edin | DRSC09488 | 2.23e5 | – | – | 5738 | – | inactive |
| chb | DRSC11469 | 2.62e5 | – | – | 5815 | – | inactive |
| CG33111 | DRSC14208 | 4.48e5 | 88906 | – | 22333 | 3048 | inactive |
| CG33111 | DRSC14444 | 6.41e5 | 1.11e5 | – | 33498 | 3972 | inactive |
| aly | DRSC08707 | 1.42e5 | 79880 | – | 4460 | 5421 | inactive |
| CG4282 | DRSC06865 | 77477 | 92252 | – | 3776 | 3603 | inactive |
| stmA | DRSC05120 | 2.00e5 | 3.80e5 | – | 4918 | 15495 | inactive |
| stmA | DRSC07593 | 83421 | 81600 | – | 2694 | 2898 | inactive |
| CG18765 | DRSC15392 | 1.08e5 | 1.29e5 | – | 3340 | 3216 | inactive |
| Tk | DRSC14954 | 1.37e5 | 6.23e5 | 1.29e5 | 5253 | 3195 | inactive |
| Shmt | DRSC18264 | 61981 | 1.62e5 | – | 1481 | 6539 | inactive |
| flz | DRSC07109 | 93306 | 63978 | – | 2548 | 6529 | inactive |

In a second layout: entries from further up.
{"target gene":"CG5815","DRSC id":"DRSC14135","firefly Hh reporter signal, replicate 1":1.51e5,"firefly Hh reporter signal, replicate 2":1.57e5,"Renilla reference signal, replicate 1":5642,"Renilla reference signal, replicate 2":4233,"Call":"inactive"}
{"target gene":"CG8773","DRSC id":"DRSC16444","firefly Hh reporter signal, replicate 1":1.43e5,"firefly Hh reporter signal, replicate 2":1.22e5,"Renilla reference signal, replicate 1":6643,"Renilla reference signal, replicate 2":4645,"Call":"inactive"}
{"target gene":"Eaf6","DRSC id":"DRSC09901","firefly Hh reporter signal, replicate 1":66775,"firefly Hh reporter signal, replicate 2":52746,"Renilla reference signal, replicate 1":6869,"Renilla reference signal, replicate 2":3753,"Call":"inactive"}

Continued:
| target gene | DRSC id | firefly Hh reporter signal, replicate 1 | firefly Hh reporter signal, replicate 2 | firefly Hh reporter signal, replicate 3 | Renilla reference signal, replicate 1 | Renilla reference signal, replicate 2 | Call |
| --- | --- | --- | --- | --- | --- | --- | --- |
| Tgi | DRSC09793 | 37046 | 56176 | 52839 | 5488 | 3852 | inactive |
| Tgi | DRSC09794 | 51883 | 47536 | 50453 | 4534 | 3484 | inactive |
| CG42709 | DRSC10277 | 1.15e5 | 1.11e5 | – | 4837 | 4649 | inactive |
| synr | DRSC02369 | 1.65e5 | 84827 | – | 4946 | 7323 | inactive |
| Gfrl | DRSC15196 | 4.89e5 | 68512 | – | 25730 | 1720 | inactive |
| Gfrl | DRSC15197 | 1.48e5 | 1.13e5 | – | 6884 | 5357 | inactive |
| Gfrl | DRSC15199 | 7.39e5 | 1.11e5 | – | 38365 | 2637 | inactive |
| Gfrl | DRSC15565 | 1.21e5 | 68304 | – | 4849 | 2892 | inactive |
| Gfrl | DRSC15719 | 4.87e5 | 70907 | – | 26844 | 1940 | inactive |
| Polr1F | DRSC02278 | 42374 | 29236 | – | 2864 | 1792 | inactive |
| Trs23 | DRSC03190 | 90524 | 62596 | – | 1984 | 5370 | inactive |
| Hsp70Aa + Hsp70Ab | DRSC21246 | 51932 | 1.41e5 | – | 2423 | 6808 | inactive |
| CG17047 | DRSC06648 | 1.16e5 | 70579 | – | 3293 | 5322 | inactive |
| temp | DRSC18271 | 1.24e5 | 87224 | – | 2904 | 2644 | inactive |
| RpL17 | DRSC18293 | 22452 | 16132 | – | 1393 | 1008 | active |
| CG12231 | DRSC19445 | 94258 | 1.75e5 | – | 3568 | 7659 | inactive |
| CG9344 | DRSC04541 | 1.04e5 | 58898 | – | 2870 | 5749 | inactive |
| ttm2 | DRSC08268 | 1.01e5 | 45622 | – | 3307 | 3156 | inactive |
| CG2816 | DRSC00539 | 1.98e5 | 65462 | – | 4819 | 6192 | inactive |
| ReepB | DRSC07150 | 1.31e5 | 60152 | – | 4646 | 2375 | inactive |
| Ddx1 | DRSC11862 | 1.13e5 | 73025 | – | 4128 | 2940 | inactive |
